Marks after values point to notes of the source that are not given here.
Test system: Salinispora tropica NPS021184
Test: Production of Salinosporamide A and analogs in shake flask or tube culture; titers by HPLC of EtOAc extract
Settings: for Max Titers: Ex.1 Table 2; for Max Avg Titer: Ex.2 Table 3
Method: Seed cultures were prepared by inoculating frozen stock of Salinispora tropica NPS021184 into seed medium.
(§1) The first seed cultures (either 10 mL medium in a 50-mL tube or 100 mL medium in a 500-mL Erlenmeyer flask) were incubated for 3 to 4 days before inoculating into the second seed media with the same composition as the first seed cultures. The second seed cultures (100 mL medium in a 500-mL Erlenmeyer flask) were incubated for two days before inoculating into the production medium (100 mL medium in a 500-mL Erlenmeyer flask).
The chemically defined salt formulation included: […]
(§2) 3.5 mL of the fermentation culture was mixed with equal volume of EtOAc in an extraction tube to extract the various metabolites from the production culture. The mixture was shaken on a shaker for one hr. An aliquot of the extract (1 mL) was removed and dried under a stream of nitrogen. The dried extract was stored at −20° C. freezer before HPLC analysis. The dried extract was resuspended in 320 μL DMSO and injected into HPLC using the 00TF14 method for analysis.
The production of Salinosporamide A, NPI-0047 and NPI-2065 was monitored by Agilent HP1100 HPLC using an ACE C-18 reversed-phase column (4.6×150 mm), and solvent system consisting of water (0.01% TFA) as solvent A and acetonitrile (0.01% TFA) as solvent B. The elution was started at 100% solvent A for 1 min, 100% solvent A to 35% solvent A gradient in 7 min, held at 35% solvent A for 11 min, 35% solvent A to 100% solvent B in 8 min and held at 100% solvent B for 9 min at a flow rate of 1.5 mL/min with the detector wavelength set at 210 nm and column temperature 35° C.
The first seed cultures (either 10 mL medium in a 50-mL tube or 100 ml medium in a 500-ml Erlenmeyer flask) were incubated for 3 to 4 days before inoculating into the second seed media with the same composition as the first seed cultures. The second seed cultures (100 mL medium in a 500-mL Erlenmeyer flask) were incubated for two days before inoculating into the production medium (100 mL medium in a 500-mL Erlenmeyer flask).
as §1, with “in a 50-ml tube or” for “in a 50-mL tube or”, “inoculating into production medium” for “inoculating into the production medium”
as §2, with “shaken” for “shaken on a shaker”, “1” for “one”, “[…]” for “μL”, “TFS7” for “00TF14”
The production of Salinosporamide A, NPI-0047 and NPI-2065 was monitored by Agilent HP1100 HPLC using an ACE C-18 reversed-phase column (4.6×150 mm), and isocratic solvent system consisting of 67% water (0.01% TFA) and 33% acetonitrile (0.01% TFA). The flow rate was 1.5 mL/min for 15 min with the detector wavelength set at 210 nm and column temperature 35° C.
3.5 mL of the fermentation culture was mixed with equal volume of EtOAc in an extraction tube to extract the various metabolites from the production culture. The mixture was shaken on the shaker for 1 hr. An aliquot of the extract (1 mL) was removed and dried under a stream of nitrogen. The dried extract was stored at −20° C. freezer before HPLC analysis. The dried extract was resuspended in 320 μL DMSO and injected into HPLC using the TFS7 method for analysis. […]

SMILES: C[C@@]12OC(=O)[C@]1([C@@H](O)[C@@H]1C=CCCC1)NC(=O)[C@@H]2CCCl [Salinosporamide A]
- Titers (maximum concentrations) (BAS.PD + 0.1% Valeric acid): 131 mg/L
- Maximum Titer (Ex.1 Table 1, shake flask, 104 μg/L CoCl2·6H2O in production medium): 251.7 mg/L
- Maximum Titer (Ex.1 Table 1, shake flask, 1.04 mg/L CoCl2·6H2O in production medium): 253.4 mg/L
- Maximum Titer (Ex.1 Table 1, shake flask, 10.4 mg/L CoCl2·6H2O in production medium): 244.6 mg/L
- Maximum Titer (Ex.1 Table 1, shake flask, no CoCl2·6H2O addition to production medium): 248.0 mg/L
- Max Titers (2.6 μg/L CoCl2·6H2O in production medium): 275.3 mg/L
- Max Titers (5.2 μg/L CoCl2·6H2O in production medium): 247.9 mg/L
- Max Titers (6.5 μg/L CoCl2·6H2O in production medium): 275.7 mg/L
- Max Titers (13 μg/L CoCl2·6H2O in production medium): 271.3 mg/L
- Max Titers (26 μg/L CoCl2·6H2O in production medium): 261.4 mg/L
- Max Titers (52 μg/L CoCl2·6H2O in production medium): 259.9 mg/L
- Max Titers (104 μg/L CoCl2·6H2O in production medium): 264.2 mg/L
- Max Titers (208 μg/L CoCl2·6H2O in production medium): 272.8 mg/L
- Max Titers (416 μg/L CoCl2·6H2O in production medium): 249.1 mg/L
- Max Titers (shake flask, control, no CoCl2·6H2O in production medium): 272.3 mg/L
- Max Avg Titer (CoCl2·6H2O in seed medium 0 μg/L, 52 μg/L in production medium): 291.8 mg/L
- Max Avg Titer (CoCl2·6H2O in seed medium 2.6 μg/L, 52 μg/L in production medium): 296.8 mg/L
- Max Avg Titer (CoCl2·6H2O in seed medium 5.2 μg/L, 52 μg/L in production medium): 306.0 mg/L
- Max Avg Titer (CoCl2·6H2O in seed medium 13 μg/L, 52 μg/L in production medium): 299.4 mg/L
- Max Avg Titer (CoCl2·6H2O in seed medium 26 μg/L, 52 μg/L in production medium): 366.2 mg/L
- Max Avg Titer (CoCl2·6H2O in seed medium 52 μg/L, 52 μg/L in production medium): 326.6 mg/L
- Max Avg Titer (CoCl2·6H2O in seed medium 104 μg/L, 52 μg/L in production medium): 347.0 mg/L
- Max Avg Titer (CoCl2·6H2O in seed medium 208 μg/L, 52 μg/L in production medium): 368.5 mg/L
- Max Avg Titer (CoCl2·6H2O in seed medium 416 μg/L, 52 μg/L in production medium): 321.2 mg/L
- Maximum Titer (Ex.20, NPS21184, detected at 24 g/L NaCl): 295 mg/L
- Titer (Ex.20, NPS21184, production medium supplemented with 5 g/L NaCl): 5.4 mg/L
- Titer (Ex.34, NPS21184, Production Medium D with Amberlite XAD-7 resin, shake flask): 350 to 400 mg/L
- Titer (Ex.4 Table 9, Chemically Defined Salt Formulation + Na2SO4 + 52 μg/L CoCl2·6H2O (Medium Lo.Maz, low chloride)): 217 mg/L
- Titer (Ex.4 Table 9, Chemically Defined Salt Formulation + NaCl + 52 μg/L CoCl2·6H2O, average of two experiments): 279* mg/L
- Titer (Ex.4 Table 9, production medium with INSTANT OCEAN): 228 mg/L
- Titer (Ex.4 Table 9, production medium: Chemically Defined Salt Formulation + NaCl): 248 mg/L
- Titer (Ex.5 Table 12, seed Lo.BNA, production SHY.KcMC, 16 mM sodium by ICP-MS, culture age 3 days): 109 mg/L
- Titer (Ex.5 Table 12, seed Lo.BNA, production SHY.KcMC, 16 mM sodium by ICP-MS, culture age 4 days): 187 mg/L
- Titer (Ex.5 Table 12, seed Lo.BNA, production SHY.KcMC, 16 mM sodium by ICP-MS, culture age 5 days): 226 mg/L
- Titer (Ex.5 Table 12, seed Lo.BNA, production SHY.KcMC, 16 mM sodium by ICP-MS, culture age 6 days): 239 mg/L
- Titers (Ex.6 Table 13, washed cells, seed A1.Kc4C, production SHY.KcMC, 11 mM sodium by ICP-MS, culture age 3 days): 45 mg/L
- Titers (Ex.6 Table 13, washed cells, seed A1.Kc4C, production SHY.KcMC, 11 mM sodium by ICP-MS, culture age 4 days): 100 mg/L
- Titers (Ex.6 Table 13, washed cells, seed A1.Kc4C, production SHY.KcMC, 11 mM sodium by ICP-MS, culture age 5 days): 170 mg/L
- Titers (Ex.6 Table 13, washed cells, seed A1.Kc4C, production SHY.KcMC, 11 mM sodium by ICP-MS, culture age 6 days): 176 mg/L
- Titers (Ex.8 Table 16, seed SHY.KCD, production SHY.KcMC, 11 mM sodium by ICP-MS, culture age 3 days): 88 mg/L
- Titers (Ex.8 Table 16, seed SHY.KCD, production SHY.KcMC, 11 mM sodium by ICP-MS, culture age 4 days): 188 mg/L
- Titers (Ex.8 Table 16, seed SHY.KCD, production SHY.KcMC, 11 mM sodium by ICP-MS, culture age 5 days): 211 mg/L
- Titers (Ex.8 Table 16, seed SHY.KCD, production SHY.KcMC, 11 mM sodium by ICP-MS, culture age 6 days): 243 mg/L
- Titers (INSTANT OCEAN-based media, day 4, condition 1 (Control): seed no cobalt addition, production no cobalt addition): 275 mg/L
- Titers (INSTANT OCEAN-based media, day 4, condition 2: seed no cobalt addition, production +13 μg/L CoCl2•6H2O): 275 mg/L
- Titers (INSTANT OCEAN-based media, day 4, condition 3: seed no cobalt addition, production +52 μg/L CoCl2•6H2O): 244 mg/L
- Titers (INSTANT OCEAN-based media, day 4, condition 4: seed no cobalt addition, production +208 μg/L CoCl2•6H2O): 244 mg/L
- Titers (INSTANT OCEAN-based media, day 4, condition 5: seed +52 μg/L CoCl2•6H2O, production no cobalt addition): 281 mg/L
- Titers (INSTANT OCEAN-based media, day 4, condition 6: seed +52 μg/L, production +13 μg/L CoCl2•6H2O): 261 mg/L
- Titers (INSTANT OCEAN-based media, day 4, condition 7: seed +52 μg/L, production +52 μg/L CoCl2•6H2O): 252 mg/L
- Titers (INSTANT OCEAN-based media, day 4, condition 8: seed +5 μg/L, production +208 μg/L CoCl2•6H2O): 256 mg/L
- Titers (INSTANT OCEAN-based media, day 4, condition 9: seed +208 μg/L CoCl2•6H2O, production no cobalt addition): 257 mg/L
- Titers (INSTANT OCEAN-based media, day 4, condition 10: seed +208 μg/L, production +13 μg/L CoCl2•6H2O): 256 mg/L
- Titers (INSTANT OCEAN-based media, day 4, condition 11: seed +208 μg/L, production +52 μg/L CoCl2•6H2O): 265 mg/L
- Titers (INSTANT OCEAN-based media, day 4, condition 12: seed +208 μg/L, production +208 μg/L CoCl2•6H2O): 246 mg/L
- Maximum Titer (Instant Ocean based media, 0x Vitamin B12: seed 0, production 0): 252 mg/L
- Maximum Titer (Instant Ocean based media, 1x Vitamin B12: seed and production 0.296 mg/L (0.22 μM)): 266 mg/L
- Maximum Titer (Instant Ocean based media, 1x vitamin B12P: seed 0, production 0.296 mg/L (0.22 μM) Vitamin B12): 231 mg/L
- Maximum Titer (Instant Ocean based media, 4x Vitamin B12: seed and production 1.185 mg/L (0.88 μM)): 266 mg/L
- Maximum Titer (Instant Ocean based media, 10x Vitamin B12: seed and production 2.96 mg/L (2.2 μM)): 247 mg/L
- Titers (maximum concentrations) (LoCl.PD + 0.1% Valeric acid): 45 mg/L
- Titer (NPS21184, CoCl2•6H2O 0 in seed medium, 0 in production medium): 258 mg/L
- Titer (NPS21184, CoCl2•6H2O 208 μg/L in seed medium, 52 μg/L in production medium): 292 mg/L
- Titer (NPS21184, production medium with salt formulation, NaCl 0 g/L): 0 mg/L
- Titer (NPS21184, production medium with salt formulation, NaCl 5 g/L): 5.4 mg/L
- Titer (NPS21184, production medium with salt formulation, NaCl 10 g/L): 235 mg/L
- Titer (NPS21184, production medium with salt formulation, NaCl 15 g/L): 288 mg/L
- Titer (NPS21184, production medium with salt formulation, NaCl 20 g/L): 286 mg/L
- Titer (NPS21184, production medium with salt formulation, NaCl 24 g/L): 295 mg/L
- Titer (NPS21184, production medium with salt formulation, NaCl 30 g/L): 223 mg/L
- Maximum Titer (defined salt formulation based media, 1× CoCl2•6H2O: seed and production 52 μ/L (0.22 μM) CoCl2•6H2O): 297 mg/L
- Maximum Titer (defined salt formulation based media, 1× vitamin B12: seed and production 0.296 mg/L (0.22 μM) Vitamin B12): 304 mg/L
- Maximum Titer (defined salt formulation based media, Control: no vitamin B12 or cobalt supplement): 277 mg/L
- Titers (maximum concentrations) (low chloride production medium LoCl.PD, no valeric acid): 96 mg/L
- Titers (maximum concentrations) (saline production medium BAS.PD, no valeric acid): 274 mg/L
- Maximum Titer (time of XAD-7 resin addition 24 h): 275 mg/L
- Maximum Titer (time of XAD-7 resin addition 48 h): 224 mg/L
- Maximum Titer (time of XAD-7 resin addition 72 h): 108 mg/L

Source: patent publication US10011814B2, “Salt formulations for the fermentation of marine microorganisms” (Triphase Research and Development I Corp., priority 2006, dated 2018)
